Assays:
[1] = n-i-p perovskite solar cell performance (J-V characteristics); details: reverse scan, AM 1.5 G
[2] = Long-term stability tests of photovoltaic cells

Structure (SMILES): CC(C)(C)c1ccc(C(C)(C)C)c(N2C(=O)c3ccc4c5c(ccc(c35)C2=O)C(=O)N(CP(=O)(O)O)C4=O)c1 [Compound V1264, N-(2,5-di-tert-butyl-phenyl)-N′-(methyl)-1,4,5,8-naphthalene tetracarboxylic diimide phosphonic acid]
- Maximum PCE ([1]; ITO/V1264/mixed perovskite/HTL/MoOx/Ag): 21.5%
- FF [1]: 77%
- JSC [1]: 24.7 mA cm^−2
- VOC [1]: 1.13 V
- Retention of initial PCE ([2]; 65° C., N2, dark, PTAA as HTL): above 90%
- Retention of initial PCE ([2]; 65° C., N2-glovebox, hot plate, dark, more than 1000 hours, spiro-OMeTAD HTL): around 72%
- Retention of initial PCE ([2]; non-encapsulated devices, N2-glovebox, room temperature, 1000 hours storage): around 84%
